# Measured data: PubChem BioAssay AID1259308 (NCATS, 2017)
# Purpose: 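Genes whose loss raises luciferase production in HEK293 cells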 (primary screen)
# System: human HEK293 embryonic kidney cells stably expressing firefly luciferase (HEK-CMV-Luc2-Hygro)
# Knock-down reagent: single siRNA against human genes, 0.8 pmol siRNA per well
# Time to read-out: 72 h
# Detection: 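Luciferase light (ONE-Glo) measured on one replicate plate set and viability (CellTiter-Glo) on the other, scaled to a negative control siRNA, with robust z-scores and luciferase per cell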
# Direction: total luciferase, z-score and total luciferase, % of control: higher = more reporter protein produced; luciferase per cell, z-score: higher = more reporter output per viable cell; viable cells, % of control: higher = more viable cells
# Rule for the call: 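An siRNA counts as active if its total luciferase robust z-score exceeds 3; genes with two or more such siRNAs out of three were retested with fresh siRNAs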
# Calls: active = raised luciferase; inactive = no rise
# Shown is a random part of about 59,000 reagents. Of all reagents, about 1,510 (2.6%) were called active. 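Calls use total luciferase alone and ignore viability, so some active siRNAs may act by altering cell number.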 Entries without a mark were called inactive. Reagents against one gene are numbered here.
target,siRNA no.,"total luciferase, z-score","total luciferase, % of control","luciferase per cell, z-score","viable cells, % of control"
GRK5 (GeneID 2869),1,0.735,96.5,0.807,87.2
GRK5 (GeneID 2869),2,2.69,135,2.47,79
GRK5 (GeneID 2869),3,-1.45,53.1,-1.74,93.7
ATP5MC2 (GeneID 517),1,0.9,99.8,0.955,86.7
ATP5MC2 (GeneID 517),2,-0.823,65.5,-1.51,109
ATP5MC2 (GeneID 517),3,2.14,125,1.7,88.9
ASB2 (GeneID 51676),1,0.752,96.8,1.22,78.4
ASB2 (GeneID 51676),2,0.433,90.5,0.833,81.2
ASB2 (GeneID 51676),3,-0.931,63.4,-0.602,83
HEY1 (GeneID 23462),1,0.167,85.2,0.494,83.6
HEY1 (GeneID 23462),2,0.0266,82.4,-0.596,108
HEY1 (GeneID 23462),3,-0.91,63.8,-0.528,81.9
RAB31 (GeneID 11031),1,-0.406,73.8,0.65,69.5
RAB31 (GeneID 11031),2,4.03 (active),162,2.67,89.6
RAB31 (GeneID 11031),3,5.59 (active),193,3.56,84.4
RAB7B (GeneID 338382),1,-0.294,76,-0.532,97.7
RAB7B (GeneID 338382),2,-0.611,69.7,-0.42,87
RAB7B (GeneID 338382),3,0.987,102,0.294,105
PEA15-AS1 (GeneID 729867),1,2.67,135,2.21,84.4
PEA15-AS1 (GeneID 729867),2,0.21,86.1,0.238,90.3
PEA15-AS1 (GeneID 729867),3,-2.39,34.4,-1.58,58.4
SMIM45 (GeneID 339674),1,-0.308,75.8,-1.12,114
SMIM45 (GeneID 339674),2,0.432,90.5,-0.0982,104
SMIM45 (GeneID 339674),3,1.18,105,0.653,99.2
AKR1C6P (GeneID 389932),1,-0.281,76.3,-0.466,96.4
AKR1C6P (GeneID 389932),2,-0.166,78.6,-0.409,97.8
AKR1C6P (GeneID 389932),3,-0.787,66.2,-0.348,81.1
RTN4RL2 (GeneID 349667),1,0.169,85.3,0.489,83.8
RTN4RL2 (GeneID 349667),2,-0.148,78.9,-0.125,91.2
RTN4RL2 (GeneID 349667),3,-1.03,61.5,-1.89,113
CPED1 (GeneID 79974),1,1.93,120,1.22,97.4
CPED1 (GeneID 79974),2,0.185,85.6,0.724,79
CPED1 (GeneID 79974),3,1.99,121,1.13,101
TTF2 (GeneID 8458),1,-1.09,60.1,-0.659,79.9
TTF2 (GeneID 8458),2,-0.128,79.3,-0.865,111
TTF2 (GeneID 8458),3,0.209,86,-0.021,96.7
SNRNP70 (GeneID 6625),1,3.28 (active),147,1.98,97.6
SNRNP70 (GeneID 6625),2,1.09,104,0.278,108
SNRNP70 (GeneID 6625),3,0.945,101,0.428,101
SWAP70 (GeneID 23075),1,0.971,101,0.0646,111
SWAP70 (GeneID 23075),2,1.55,113,0.974,97.4
SWAP70 (GeneID 23075),3,-0.352,74.9,0.684,69.9
DRC1 (GeneID 92749),1,0.427,90.4,0.505,88.4
DRC1 (GeneID 92749),2,0.947,101,0.727,92.9
DRC1 (GeneID 92749),3,-0.35,74.9,0.183,79.8
CCDC18 (GeneID 343099),1,0.126,84.4,-0.326,103
CCDC18 (GeneID 343099),2,-0.629,69.4,-0.47,87.7
CCDC18 (GeneID 343099),3,-0.265,76.6,0.18,81.6
PTPRN2 (GeneID 5799),1,0.591,93.6,0.0718,103
PTPRN2 (GeneID 5799),2,1.74,116,1.1,97.4
PTPRN2 (GeneID 5799),3,1.94,120,1.31,95.3
GSTCD (GeneID 79807),1,1.07,103,0.611,98.2
GSTCD (GeneID 79807),2,-0.44,73.1,-0.973,106
GSTCD (GeneID 79807),3,1.32,108,1.33,85.1
HPGD (GeneID 3248),1,-0.275,76.4,-0.29,92.2
HPGD (GeneID 3248),2,0.994,102,0.597,97.1
HPGD (GeneID 3248),3,0.283,87.5,0.191,93
SLC28A2 (GeneID 9153),1,-0.961,62.8,-1.05,92.5
SLC28A2 (GeneID 9153),2,-0.917,63.7,-0.759,86.9
SLC28A2 (GeneID 9153),3,0.292,87.7,-0.0281,98.7
TMPRSS9 (GeneID 360200),1,-0.396,74,-0.17,86.5
TMPRSS9 (GeneID 360200),2,1.92,120,1.29,95.7
TMPRSS9 (GeneID 360200),3,0.629,94.4,-0.402,117
CD1E (GeneID 913),1,0.49,91.6,-0.252,109
CD1E (GeneID 913),2,-0.43,73.3,-0.696,98.4
CD1E (GeneID 913),3,1.42,110,1.24,88.9
LGR4 (GeneID 55366),1,0.0201,82.3,-0.0627,93.5
LGR4 (GeneID 55366),2,0.21,86.1,-0.465,109
LGR4 (GeneID 55366),3,-0.075,80.4,-0.616,106
TRIM64C (GeneID 646754),1,-0.988,62.2,-1.37,99.7
TRIM64C (GeneID 646754),2,1.55,113,1.74,79.7
TRIM64C (GeneID 646754),3,-1.29,56.1,-1.44,91.6
SLC60A2 (GeneID 91749),1,-0.742,67.1,-1.08,99.8
SLC60A2 (GeneID 91749),2,-0.0375,81.1,-0.531,104
SLC60A2 (GeneID 91749),3,-0.337,75.2,-1.25,117

Records listed so far called active, once more:
target,siRNA no.,"total luciferase, z-score","total luciferase, % of control","luciferase per cell, z-score","viable cells, % of control"
RAB31 (GeneID 11031),2,4.03 (active),162,2.67,89.6
RAB31 (GeneID 11031),3,5.59 (active),193,3.56,84.4
SNRNP70 (GeneID 6625),1,3.28 (active),147,1.98,97.6
